From doi:10.1101/2024.01.11.570615
No constants are given. Whether binding was seen depends on the method and setting. Some binding calls cover weakened binding; strength is not graded here. Where a sequence is shown, tags or fusion partners need not be part of it.

Legend:
[1] = target: T1, BARELY ANY MERISTEM1 (BAM1)-GFP (Arabidopsis thaliana) (UniProt O49545); assay: confocal microscopy of fluorescent peptide on the plasma membrane of root cells
T1 sequence: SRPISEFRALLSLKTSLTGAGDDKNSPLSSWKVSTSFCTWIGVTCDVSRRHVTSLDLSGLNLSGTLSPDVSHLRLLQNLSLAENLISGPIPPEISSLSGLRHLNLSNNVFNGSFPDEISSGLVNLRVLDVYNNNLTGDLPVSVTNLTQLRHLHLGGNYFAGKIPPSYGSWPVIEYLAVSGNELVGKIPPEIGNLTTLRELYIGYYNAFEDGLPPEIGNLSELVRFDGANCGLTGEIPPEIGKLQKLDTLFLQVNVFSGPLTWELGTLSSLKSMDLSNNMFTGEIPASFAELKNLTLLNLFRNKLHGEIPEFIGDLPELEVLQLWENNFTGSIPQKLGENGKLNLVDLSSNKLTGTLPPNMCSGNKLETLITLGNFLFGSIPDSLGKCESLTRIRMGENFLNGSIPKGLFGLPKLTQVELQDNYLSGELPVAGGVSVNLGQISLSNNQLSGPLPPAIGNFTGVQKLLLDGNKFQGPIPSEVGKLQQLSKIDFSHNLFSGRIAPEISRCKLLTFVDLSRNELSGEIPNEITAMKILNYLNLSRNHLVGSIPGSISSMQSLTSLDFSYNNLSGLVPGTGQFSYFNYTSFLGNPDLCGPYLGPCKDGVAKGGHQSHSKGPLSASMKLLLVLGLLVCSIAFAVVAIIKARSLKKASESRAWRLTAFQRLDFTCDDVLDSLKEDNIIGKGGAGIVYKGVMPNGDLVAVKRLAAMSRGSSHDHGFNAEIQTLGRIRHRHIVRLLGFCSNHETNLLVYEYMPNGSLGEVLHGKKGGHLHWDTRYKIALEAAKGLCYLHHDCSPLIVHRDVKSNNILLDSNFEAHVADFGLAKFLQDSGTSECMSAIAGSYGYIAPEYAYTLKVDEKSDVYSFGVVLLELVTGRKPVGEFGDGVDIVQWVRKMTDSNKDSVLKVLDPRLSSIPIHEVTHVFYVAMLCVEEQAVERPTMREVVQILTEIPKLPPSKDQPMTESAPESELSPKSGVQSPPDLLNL

[2] = target: T2, PEP RECEPTOR 1 (PEPR1)-GFP (Arabidopsis thaliana) (UniProt Q9SSL9); assay: as above
T2 sequence: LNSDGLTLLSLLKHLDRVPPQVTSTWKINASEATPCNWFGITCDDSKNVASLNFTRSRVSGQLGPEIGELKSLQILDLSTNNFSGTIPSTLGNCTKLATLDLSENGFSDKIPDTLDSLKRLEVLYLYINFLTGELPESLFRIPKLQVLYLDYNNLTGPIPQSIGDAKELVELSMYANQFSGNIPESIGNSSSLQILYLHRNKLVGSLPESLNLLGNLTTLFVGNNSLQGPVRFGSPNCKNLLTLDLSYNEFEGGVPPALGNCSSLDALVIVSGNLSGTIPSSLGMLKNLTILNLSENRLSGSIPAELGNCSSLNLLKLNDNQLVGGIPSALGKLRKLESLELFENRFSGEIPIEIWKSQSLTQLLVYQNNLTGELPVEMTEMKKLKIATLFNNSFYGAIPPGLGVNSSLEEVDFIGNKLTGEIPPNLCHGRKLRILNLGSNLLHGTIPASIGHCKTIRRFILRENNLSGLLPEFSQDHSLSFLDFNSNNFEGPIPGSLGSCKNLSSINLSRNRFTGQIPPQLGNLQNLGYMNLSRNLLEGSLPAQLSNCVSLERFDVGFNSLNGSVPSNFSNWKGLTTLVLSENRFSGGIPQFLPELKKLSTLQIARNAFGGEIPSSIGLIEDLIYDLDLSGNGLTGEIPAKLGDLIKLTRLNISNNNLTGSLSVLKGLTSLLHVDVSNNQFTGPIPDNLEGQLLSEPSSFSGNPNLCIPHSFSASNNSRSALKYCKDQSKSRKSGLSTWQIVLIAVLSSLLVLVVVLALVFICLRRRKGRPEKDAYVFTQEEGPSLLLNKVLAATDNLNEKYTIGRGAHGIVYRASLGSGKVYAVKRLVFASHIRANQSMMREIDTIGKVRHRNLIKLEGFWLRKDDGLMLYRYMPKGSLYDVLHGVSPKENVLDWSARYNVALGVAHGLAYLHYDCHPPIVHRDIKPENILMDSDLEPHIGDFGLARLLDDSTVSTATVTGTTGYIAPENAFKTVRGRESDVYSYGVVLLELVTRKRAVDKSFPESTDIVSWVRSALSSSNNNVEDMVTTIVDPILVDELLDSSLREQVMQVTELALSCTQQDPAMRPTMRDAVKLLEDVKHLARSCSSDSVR

B1: pep1-TAMRA (peptide, UniProt Q9LV87 70-92)
peptide: ATKVKAKQRGKEKVSSGRPGQHN
modifications: TAMRA (position not given)
Q: What does the source list for B1?
A: binding [1]: no binding (tested: 200 nM); binding [2]: binds
